Values from PubChem BioAssay AID1508597 (Cure First, 2020).
Assay: 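Survival screen with siRNA in ovarian cancer cells derived from patients, with or without rucaparib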 (primary screen). Cell system: human ovarian carcinoma lines grown from tumours: OCI-P5x (papillary serous) and OCI-C5x (clear cell). Knock-down reagent: siRNA pool against human genes, 1.25 pmol siRNA per well. Timing: 72 h or 96 h, depending on the cell culture. Treatment: rucaparib 20 µM (about IC30) or vehicle, present until read-out. Rucaparib or vehicle: Rucaparib. Cell line: OCI-P5x (serous). Read-out: 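Luminescent ATP-based viability assay read 72 or 96 h after transfection, depending on culture, given as normalised percent viability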. Direction: viability, normalised: higher = more viable cells remaining. Rule for the call: 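Active when normalised viability falls below 80 percent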. Meaning of the calls: active = viability under 80%; inactive = viability 80% or more.
This is an unselected part of the about 2,100 reagents, under one of the conditions tested. 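Calls flag viability under 80% in either arm, not effects specific to rucaparib; the reference for percent is not stated.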 Unmarked entries are inactive. Some reagents were tested in more than one well and are listed for each. No sequences are given here. Not given: the 100% reference.

no.	target gene	technical replicate	viability, normalised (%)
1	MED15	1	55.4 (active)
2	MED15	2	70.2 (active)
3	MED15	3	63 (active)
4	PIK3R3	1	73.6 (active)
5	PIK3R3	2	80.8
6	PIK3R3	3	71.1 (active)
7	SLC22A12	1	46.2 (active)
8	SLC22A12	2	59.1 (active)
9	SLC22A12	3	53 (active)
10	AUNIP	1	55.7 (active)
11	AUNIP	2	60.4 (active)
12	AUNIP	3	56.6 (active)
13	MTRF1	1	31.3 (active)
14	MTRF1	2	46.4 (active)
15	MTRF1	3	39.7 (active)
16	RCBTB1	1	53.5 (active)
17	RCBTB1	2	41 (active)
18	RCBTB1	3	52.7 (active)
19	PCGF2	1	33.5 (active)
20	PCGF2	2	33.9 (active)
21	PCGF2	3	42.3 (active)
22	SIN3A	1	39.3 (active)
23	SIN3A	2	38.8 (active)
24	SIN3A	3	55.9 (active)
25	SMYD4	1	35.6 (active)
26	SMYD4	2	44.7 (active)
27	SMYD4	3	47 (active)
28	ADCK5	1	84.4
29	ADCK5	2	83.8
30	ADCK5	3	64.4 (active)
31	UBE2V2	1	99.7
32	UBE2V2	2	89.4
33	UBE2V2	3	83.8
34	BCL6	1	60.5 (active)
35	BCL6	2	66.4 (active)
36	BCL6	3	68.7 (active)
37	MASTL	1	91
38	MASTL	2	85
39	MASTL	3	48.5 (active)
40	RPS3A	1	65 (active)
41	RPS3A	2	62.8 (active)
42	RPS3A	3	62.6 (active)
43	H1-4	1	71.1 (active)
44	H1-4	2	66.7 (active)
45	H1-4	3	64.8 (active)
46	CLDN12	1	67 (active)
47	CLDN12	2	65.7 (active)
48	CLDN12	3	59.7 (active)
49	MSH4	1	87.8
50	MSH4	2	90.4
51	MSH4	3	83.9
52	HAUS7	1	81.6
53	HAUS7	2	82.2
54	HAUS7	3	90.7
55	SRPK3	1	86.6
56	SRPK3	2	76.8 (active)
57	SRPK3	3	85.3
58	EYA1	1	63.9 (active)
59	EYA1	2	61 (active)
60	EYA1	3	74.9 (active)
61	TGFB2	1	75.1 (active)
62	TGFB2	1	74.4 (active)
63	TGFB2	2	71.8 (active)
64	TGFB2	2	81.1
65	TGFB2	3	68.4 (active)
66	TGFB2	3	75.7 (active)
67	SULF2	1	76.1 (active)
68	SULF2	2	73.5 (active)
69	SULF2	3	97
70	CDH4	1	101
71	CDH4	2	96.9
72	CDH4	3	98.7
73	PRKAB2	1	90.2
74	PRKAB2	2	79.7 (active)
75	PRKAB2	3	79.9 (active)
